The values are deposited in ChEMBL (CHEMBL3988442, “University of Dundee, Small-Polar-MMV Screening Library” (2021)).

Protein sequences, listed by entry. Tags and fused reporters are not part of them. Residues count along the entry.
UniProt P9WNZ1, whole entry: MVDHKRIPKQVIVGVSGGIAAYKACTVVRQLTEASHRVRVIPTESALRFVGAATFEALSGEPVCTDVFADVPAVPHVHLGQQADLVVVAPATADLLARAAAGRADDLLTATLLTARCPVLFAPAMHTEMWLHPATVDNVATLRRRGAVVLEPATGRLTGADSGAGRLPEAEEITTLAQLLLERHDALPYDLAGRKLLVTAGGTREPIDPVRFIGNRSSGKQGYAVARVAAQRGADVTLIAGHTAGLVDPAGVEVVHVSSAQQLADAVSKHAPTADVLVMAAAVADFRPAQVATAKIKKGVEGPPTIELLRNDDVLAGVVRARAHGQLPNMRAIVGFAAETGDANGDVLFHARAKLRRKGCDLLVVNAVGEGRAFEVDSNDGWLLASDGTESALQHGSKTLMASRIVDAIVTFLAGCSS
UniProt A4I591, 1-473: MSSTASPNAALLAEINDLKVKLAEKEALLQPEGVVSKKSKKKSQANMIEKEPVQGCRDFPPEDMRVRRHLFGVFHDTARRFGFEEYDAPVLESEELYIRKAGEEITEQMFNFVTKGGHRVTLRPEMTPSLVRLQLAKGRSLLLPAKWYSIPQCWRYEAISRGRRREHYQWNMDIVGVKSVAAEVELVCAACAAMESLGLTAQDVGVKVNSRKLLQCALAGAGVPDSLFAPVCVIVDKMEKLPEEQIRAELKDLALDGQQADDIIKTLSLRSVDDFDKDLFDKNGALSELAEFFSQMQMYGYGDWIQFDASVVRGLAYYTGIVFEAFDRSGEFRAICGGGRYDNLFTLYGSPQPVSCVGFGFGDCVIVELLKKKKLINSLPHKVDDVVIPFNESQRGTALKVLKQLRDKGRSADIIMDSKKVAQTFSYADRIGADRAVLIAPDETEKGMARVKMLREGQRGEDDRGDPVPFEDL

CoaBC: 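Enzyme assay of CoaBC with a phosphate dye (Biomol Green) read at 650 nm. Target: Coenzyme A biosynthesis protein CoaBC, Mycobacterium tuberculosis (UniProt P9WNZ1). Concentration: 30 µM. Higher reads as stronger inhibition, judged from the few compounds that gave an IC50. Most strong results did not repeat in a second test. Size under these conditions: about 67,000 compounds, about 40 of them at 50% or above in at least one test.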
LiHisRS: 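Enzyme assay of histidyl-tRNA synthetase; the read-out is not stated. Target: Histidine-tRNA ligase, Leishmania infantum (UniProt A4I591). Tested at 30 µM. The record gives no direction; compounds that gave an IC50 in retests scored well above the rest, so higher reads as stronger inhibition. The assay is labelled LdHisRS but filed under L. infantum. About 69,000 compounds were tested under these conditions; 0.6% (about 410) showed 50% or more at least once.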
Leishmania in macrophages: 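Cell assay of Leishmania donovani living inside macrophages; the read-out is not stated. Concentration: 30 µM. Direction is inferred from retests: higher values go with stronger inhibition. About 69,000 compounds were tested under these conditions; 1.5% (about 1,000) showed 50% or more at least once.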

Each number is a percent effect as filed. The controls that fix the scale are not given in the record; negative values are as filed. Compounds were drawn at random from those tested, without regard to their results. Two or more numbers in one place are separate tests of the same structure; such repeats can differ widely.

{"compound": "COCCN1CCC2(CCCN(Cc3ccoc3)C2)C1=O", "stereo": "centres unmarked", "CoaBC": 1.412, "LiHisRS": 8.257}
{"compound": "COc1ccccc1CN1C[C@@H]2COC[C@]2(COCc2ccncc2)C1", "CoaBC": 9.939, "LiHisRS": 17.43}
{"compound": "COCCN1CCC2(CCCN(C(=O)c3cncn3C)C2)CC1.O=C(O)C(F)(F)F", "Leishmania in macrophages": 5.542}
{"compound": "Cc1cc(CN(C)C(=O)NC2CCN(Cc3ccccn3)CC2)no1", "CoaBC": 12.73, "LiHisRS": 14.29, "Leishmania in macrophages": 25.58}
{"compound": "CCc1nc2c(c(N3CCOCC3)n1)CCN(C(=O)c1ccon1)CC2", "CoaBC": 0, "LiHisRS": 0, "Leishmania in macrophages": -11.7}
{"compound": "Cc1cccc2nc(CNC(=O)N3CCC(OCC4CC4)CC3)cn12", "CoaBC": -1.272, "LiHisRS": 2.564, "Leishmania in macrophages": "41.4 & 19.93"}
{"compound": "CO[C@@H]1CCN(C(=O)Cc2ccc(F)cc2)[C@@H]1Cc1cccnc1", "CoaBC": 4.242, "LiHisRS": 3.846}
{"compound": "CC1CCCN1C1CCN(C(=O)c2cccc(F)c2)CC1", "stereo": "centres unmarked", "CoaBC": 1.992, "LiHisRS": 19.18, "Leishmania in macrophages": -3.053}
{"compound": "CC(c1ccco1)N(C)C(=O)NCCOc1ccc(C#N)cc1", "stereo": "centres unmarked", "CoaBC": 0, "LiHisRS": 0, "Leishmania in macrophages": -0.8394}
{"compound": "CCC(=O)NCCc1cc(N2CCN(C(C)=O)CC2)nc(C2CC2)n1", "CoaBC": 3.889, "LiHisRS": 13.89, "Leishmania in macrophages": 3.961}
{"compound": "CNC(=O)C1Cn2ccnc2C2(CCN(C(=O)c3ccccn3)CC2)O1", "stereo": "centres unmarked", "CoaBC": 10.24, "LiHisRS": 5.263, "Leishmania in macrophages": 16.56}
{"compound": "O=c1cc(CN2CCCC2)nc2n1CCCN(Cc1ccoc1)C2", "CoaBC": 3.716, "LiHisRS": 22.34, "Leishmania in macrophages": 10.25}
{"compound": "c1cnc(N2CCC3(CCCN(CC4CC4)C3)CC2)nc1", "CoaBC": -3.609, "LiHisRS": 11.5}
{"compound": "Cc1cc(C(F)(F)F)nc(CCNc2nc(C)nc3sccc23)n1", "CoaBC": -1.948, "LiHisRS": -4.918, "Leishmania in macrophages": -11.69}
{"compound": "CN(C)c1cnnc(N2CCN(C(=O)CCC3CCCCC3)CC2)c1", "CoaBC": 11.21, "LiHisRS": 6.957, "Leishmania in macrophages": "-1.656 & -8.449"}
{"compound": "CC(C)C[C@@H](N)C(=O)N(C)Cc1csc(C(C)C)n1", "CoaBC": 6.163, "LiHisRS": 17.33, "Leishmania in macrophages": 18.19}
{"compound": "O=C(c1ccoc1)N1CCC2(CCCN(c3ncc(F)cn3)C2)C1", "stereo": "centres unmarked", "CoaBC": 0.9877, "LiHisRS": 4.545, "Leishmania in macrophages": 33.61}
{"compound": "COc1cccc(C(=O)N2CCOCC2CN(C)C)c1OC.O=CO", "stereo": "centres unmarked", "Leishmania in macrophages": 37.55}
{"compound": "Cc1cnc(NC(=O)CSC2CCc3ccccc3NC2=O)s1", "stereo": "centres unmarked", "CoaBC": -1.277, "LiHisRS": 25.97, "Leishmania in macrophages": 29.24}
{"compound": "CCn1ccnc1C1CCN(C(=O)C(O)c2ccc(OC)cc2)CC1", "stereo": "centres unmarked", "CoaBC": 0, "LiHisRS": 11.48, "Leishmania in macrophages": 16.5}
{"compound": "CCn1ccnc1CN1CCC(N(C)Cc2ncc(C)o2)C1", "stereo": "centres unmarked", "CoaBC": 4.302, "LiHisRS": 17.57, "Leishmania in macrophages": 9.916}
{"compound": "Cc1ncnc2c1CCN(c1ccccn1)CC2", "CoaBC": 4.106, "LiHisRS": 23.23}
{"compound": "NC(=O)C(Cc1ccccc1)NS(=O)(=O)Cc1ccccc1Cl", "stereo": "centres unmarked", "CoaBC": -6.928, "LiHisRS": 6.897, "Leishmania in macrophages": -26.29}
{"compound": "Cn1cc(C[C@H]2[C@H](O)CCN2C(=O)c2ccsc2)cn1", "CoaBC": 3.25, "LiHisRS": 18, "Leishmania in macrophages": 29.36}
{"compound": "CC(C)c1nccc(CN2CCC(O)(CN3CCCCC3)C2)n1", "stereo": "centres unmarked", "CoaBC": -26.19, "LiHisRS": 32.79, "Leishmania in macrophages": 18.94}
{"compound": "O=C(Nc1ccccc1F)NC1(CO)CCOCC1", "CoaBC": 7.543, "LiHisRS": 22.22, "Leishmania in macrophages": 37.09}
{"compound": "COCCN1CCN(CC(=O)NC2(C#N)CCCC2)CC1C", "stereo": "centres unmarked", "CoaBC": -3.828, "LiHisRS": -1.667, "Leishmania in macrophages": -23.5}
{"compound": "CCCc1nc(CNC(C)Cn2cccn2)cs1", "stereo": "centres unmarked", "CoaBC": 9.43, "LiHisRS": 9.649, "Leishmania in macrophages": 4.9}
{"compound": "COCCN1CCN(CC2CCCCO2)CC1", "stereo": "centres unmarked", "CoaBC": 3.306, "LiHisRS": -29.46, "Leishmania in macrophages": -15.55}
{"compound": "CC(O)CN1CCN(Cc2coc(-c3ccc(Cl)cc3)n2)CC1", "stereo": "centres unmarked", "CoaBC": 4.54, "LiHisRS": 9.615, "Leishmania in macrophages": 39.41}
{"compound": "Cc1csc(CNC(=O)NCCc2ccc3c(c2)OCCO3)n1", "CoaBC": -2.051, "LiHisRS": 32, "Leishmania in macrophages": 12.45}
{"compound": "O=C(O)C(F)(F)F.[H][C@@]12CN(CC3CC3)CC[C@]1([H])CN(c1ncc(C)cn1)C2", "Leishmania in macrophages": 17.95}
{"compound": "NC(=O)C1CCN(c2ncccc2C(=O)N2CCc3ccccc32)C1", "stereo": "centres unmarked", "CoaBC": 1.887, "LiHisRS": 5.31, "Leishmania in macrophages": 17.69}
{"compound": "O=C(Cc1ccon1)N(CCC(F)(F)F)C1CCCC1", "CoaBC": 1.984, "LiHisRS": 0.8929, "Leishmania in macrophages": 10.33}
{"compound": "COCCSc1ccc(C(C)NC(=O)Nc2cccnc2)cc1", "stereo": "centres unmarked", "CoaBC": 1.789, "LiHisRS": 19.33, "Leishmania in macrophages": 25.07}
{"compound": "Cc1ccc(C(=O)N2Cc3c(CN(C)C)nn(C)c3C2)cc1C.O=C(O)C(F)(F)F", "Leishmania in macrophages": 35.58}

Once more, the final 5:

O=C(O)C(F)(F)F.[H][C@@]12CN(CC3CC3)CC[C@]1([H])CN(c1ncc(C)cn1)C2 read Leishmania in macrophages: 17.95%.
NC(=O)C1CCN(c2ncccc2C(=O)N2CCc3ccccc32)C1 (centres unmarked) read CoaBC: 1.887%; LiHisRS: 5.31%; Leishmania in macrophages: 17.69%.
O=C(Cc1ccon1)N(CCC(F)(F)F)C1CCCC1 read CoaBC: 1.984%; LiHisRS: 0.8929%; Leishmania in macrophages: 10.33%.
COCCSc1ccc(C(C)NC(=O)Nc2cccnc2)cc1 (centres unmarked) read CoaBC: 1.789%; LiHisRS: 19.33%; Leishmania in macrophages: 25.07%.
Cc1ccc(C(=O)N2Cc3c(CN(C)C)nn(C)c3C2)cc1C.O=C(O)C(F)(F)F read Leishmania in macrophages: 35.58%.